Experimental data taken from the supplement of paper PMC10735217.
Counter-ions that a name gives are not always drawn. This is one part of the list. Repeats in this data set agree poorly, so a single value says little.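 Human kidney-derived cells stably carry a construct in which eight TEAD-binding elements drive luciferase, measured by luminescence in a drug-repurposing library screen. A hit is any compound whose signal exceeds the plate mean by more than five robust Z scores.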

Tested on: HEK293A TEAD-LUC reporter
Assay: TEAD-luciferase reporter activity (YAP activation), robust Z score vs plate; higher = stronger YAP/TEAD activation
Conditions: 24 h

Compound	TEAD-luciferase reporter activity (compound concentration: 200 nM)	TEAD-luciferase reporter activity (compound concentration: 2 uM)	TEAD-luciferase reporter activity (compound concentration: 10 uM)
CCN(CC)CCNC1c2ccccc2OCc2ncccc21 (centres undefined)	inactive: -0.237	inactive: 1.05	inactive: -1.76
CCCCOc1cc(C(=O)NCCN(CC)CC)c2ccccc2n1 [Dibucaine]	active: 9.89	inactive: 4.28	inactive: -0.0235
CC(C)[C@H](O)C(=O)N[C@@H](C)C(=O)N[C@@H]1C(=O)N(C)CCc2ccccc21 [Semagacestat]	–	inactive: -0.419	–
CC(C)[C@H](O)C(=O)N[C@@H](C)C(=O)N[C@@H]1C(=O)N(C)CCc2ccccc21	inactive: 0.373	–	inactive: 0.509
CO/N=C(/C(=O)NC1C(=O)N2C(C(=O)O)=CCSC12)c1csc(NC(=O)C(C)N)n1 (centres undefined)	inactive: 1	inactive: -1.04	active: 10.6
C=C[C@@H]1C[C@]1(NC(=O)[C@@H]1C[C@@H]2CN1C(=O)[C@H](C(C)(C)C)NC(=O)O[C@@H]1C[C@H]1CCCCCc1nc3ccc(OC)cc3nc1O2)C(=O)NS(=O)(=O)C1CC1	inactive: -1.35	inactive: 1.66	inactive: 3.32
Cc1ncc(-c2ccnc(Nc3ccc(S(C)(=O)=O)cc3)n2)n1C(C)C	inactive: -0.638	inactive: -3.05	inactive: -0.289
CCOCn1cnc2c1c(=O)n(CCCCC(C)(C)O)c(=O)n2C [Torbafylline]	inactive: -1.01	inactive: -1.89	inactive: 4.01
O=C(Nc1ccc(F)cc1)NC1C(=O)N(CC(=O)N2CCCC2)c2ccccc2N(C2CCCCC2)C1=O (centres undefined)	inactive: -1.19	inactive: 0.159	inactive: 0.619
CC(=N)N1CCC(Oc2ccc(N(Cc3ccc4ccc(C(=N)N)cc4c3)S(=O)(=O)CC(=O)O)cc2)CC1	inactive: -0.422	inactive: 0.0159	inactive: -1.26
CC(C)NC(=O)c1cnc2n1CCc1ccccc1C21CCNCC1	inactive: -0.546	inactive: 3.59	inactive: -0.318
Cc1c(CN(C)C(=O)/C=C/C2=CNC3=NC(=O)CCC3=C2)oc2ccccc12	inactive: -0.706	inactive: -2.04	inactive: -1.41
CCC(CC)n1c(C)cc2c3c(N)nc(N)nc3ccc21	inactive: -1.57	inactive: -1.81	inactive: 2.68
S=[Se]=S	inactive: -0.171	–	inactive: -1.58
CC(C)[C@@]1(C)SC(NC2C[C@H]3CC[C@@H]2C3)=NC1=O (some centres undefined)	inactive: -0.965	inactive: 0.29	inactive: -0.601
CO/N=C(\C(=O)NC1C(=O)N2C(C(=O)O)=CCSC12)c1csc(N)n1 (centres undefined) [ceftizoxime]	inactive: 0.821	inactive: -0.28	inactive: 0.148
CO/N=C(\C(=O)NC1C(=O)N2C(C(=O)O)=CCSC12)c1csc(N)n1 (centres undefined) [Ceftizoxime sodium]	–	inactive: -1.41	–
CCCNC(Cc1ccc(OCCc2nc(-c3ccccc3)oc2C)cc1)C(=O)O (centres undefined)	inactive: -1.3	inactive: -0.0731	inactive: -0.281
Cc1cc(SC2=C(O)CC(CCc3ccc(O)cc3)(C(C)C)OC2=O)c(C(C)(C)C)cc1N (centres undefined)	inactive: 2.06	inactive: -0.265	inactive: 0.91

Reprinted at random: four entries already listed.
Compound	TEAD-luciferase reporter activity (compound concentration: 200 nM)	TEAD-luciferase reporter activity (compound concentration: 2 uM)	TEAD-luciferase reporter activity (compound concentration: 10 uM)
C=C[C@@H]1C[C@]1(NC(=O)[C@@H]1C[C@@H]2CN1C(=O)[C@H](C(C)(C)C)NC(=O)O[C@@H]1C[C@H]1CCCCCc1nc3ccc(OC)cc3nc1O2)C(=O)NS(=O)(=O)C1CC1	inactive: -1.35	inactive: 1.66	inactive: 3.32
CCOCn1cnc2c1c(=O)n(CCCCC(C)(C)O)c(=O)n2C [Torbafylline]	inactive: -1.01	inactive: -1.89	inactive: 4.01
CC(C)NC(=O)c1cnc2n1CCc1ccccc1C21CCNCC1	inactive: -0.546	inactive: 3.59	inactive: -0.318
Cc1ncc(-c2ccnc(Nc3ccc(S(C)(=O)=O)cc3)n2)n1C(C)C	inactive: -0.638	inactive: -3.05	inactive: -0.289

(list continues)

Compound	TEAD-luciferase reporter activity (compound concentration: 200 nM)	TEAD-luciferase reporter activity (compound concentration: 2 uM)	TEAD-luciferase reporter activity (compound concentration: 10 uM)
CC(O)c1ccc(CCOc2ccc(CC3SC(=O)NC3=O)cc2)nc1 (centres undefined) [Hydroxypioglitazone]	inactive: -1.11	inactive: -0.898	inactive: -0.115
CC(C)c1ccc(NC(=O)Cn2cnc3c2c(=O)n(C)c(=O)n3C)cc1	inactive: 2.36	inactive: -1.48	inactive: -0.427
CC(C)=CCOc1cc(NC(=S)c2cccnc2)ccc1Cl	inactive: 0.77	inactive: -1.34	inactive: -1.34
C=C(c1ccccc1Cl)C(O)(Cn1cncn1)c1ccc(Cl)cc1 (centres undefined)	inactive: 0.391	inactive: 0.294	inactive: -0.582
CNC(=O)Nc1c(OCCN2CCCC2)c(OC)c2occc2c1OC [Carocainide]	inactive: -0.344	–	inactive: 0.972
CC[N+](C)(C)NCCC(=O)O [metabolite of EDIHYP]	inactive: -0.502	inactive: -0.955	inactive: -1.65
O=C(O)c1cccnc1N1CCN(CCCC(c2ccc(F)cc2)c2ccc(F)cc2)CC1	inactive: 0.509	inactive: -0.679	inactive: -0.577
COc1ccccc1N1CCN(CC(C)N(C(=O)C2CCCCC2)c2ccccn2)CC1 (centres undefined)	inactive: -0.755	inactive: -0.857	inactive: -1.46
CC1(C)O[C@@H]2C[C@H]3[C@@H]4CCC5=CC(=O)C=C[C@]5(C)[C@@]4(F)[C@@H](O)C[C@]3(C)[C@]2(C(=O)CO)O1 [Triamcinolone acetonide]	inactive: -0.613	–	inactive: 0.298
CC1(C)O[C@@H]2C[C@H]3[C@@H]4CCC5=CC(=O)C=C[C@]5(C)[C@@]4(F)[C@@H](O)C[C@]3(C)[C@]2(C(=O)CO)O1 [triamcinolone acetonide]	–	inactive: 0.854	–
CC(=O)NCC(=O)N1[C@@H]2CC[C@H]1c1ccc(Nc3ncc(C(F)(F)F)c(NC4CCC4)n3)cc12	inactive: 1.39	inactive: -2.36	inactive: -0.684
C[C@@H]1CC[C@@]2(NC1)O[C@H]1C[C@H]3[C@@H]4CC=C5C[C@@H](O[C@@H]6O[C@H](CO)[C@H](O)[C@H](O[C@@H]7O[C@H](CO)[C@@H](O)[C@H](O)[C@H]7O)[C@H]6O[C@@H]6O[C@@H](C)[C@H](O)[C@@H](O)[C@H]6O)CC[C@]5(C)[C@H]4CC[C@]3(C)[C@H]1[C@@H]2C [Solasonine]	inactive: -0.526	inactive: -0.108	inactive: 1.01
O=C(Nc1cc(C(F)(F)F)ccc1Oc1ccc(Cl)c2ccccc12)c1cc(Cl)ccc1O	inactive: -0.828	inactive: -0.601	inactive: -1.06
CC(=O)Nc1ccc(CC(=O)Nc2ncc(C)s2)cc1	inactive: -1.02	inactive: -0.223	inactive: -2.19
NNC(=O)CCCCCC(=O)NN	inactive: -1.57	inactive: -1.31	inactive: 1.06
CCOC(=O)N1CSCC1C(=O)O (centres undefined) [telmesteine]	inactive: 0.527	inactive: -0.238	inactive: -0.994
[F][Ga]([F])[F] [Gallium Fluoride]	inactive: 0.644	inactive: 1	inactive: 2.79
CN(C)CCOc1ccc(/C(=C(/CCCl)c2ccccc2)c2ccccc2)cc1	inactive: 0.116	–	inactive: 0.351
CN(C)CCOc1ccc(/C(=C(/CCCl)c2ccccc2)c2ccccc2)cc1 [toremifene citrate]	–	inactive: 0.274	–

Compound	TEAD-luciferase reporter activity (compound concentration: 200 nM)	TEAD-luciferase reporter activity (compound concentration: 2 uM)	TEAD-luciferase reporter activity (compound concentration: 10 uM)
N=C(N)NCCNS(=O)(=O)c1cccc2cnccc12	inactive: 4.59	inactive: -0.645	inactive: 2.65
CC(C)NCCCn1c(Sc2cc3c(cc2I)OCO3)nc2c(N)ncnc21	inactive: -1.42	inactive: -2.04	inactive: -3.07
COc1ccc([C@]2(C#N)CC[C@@H](C(=O)O)CC2)c2c1OCCO2	inactive: 1.65	inactive: -1.03	inactive: -0.123
CS(=O)(=O)Nc1cc([C@@H](O)CN[C@H](Cc2ccccc2)c2ccc(OC(F)F)cc2)ccc1O	inactive: -1.25	inactive: -0.397	inactive: -1.38
O=C(Nc1ccc(Cl)c(COc2cccnc2)c1)c1cc(F)cc(N2CCOCC2)c1	inactive: -1.18	inactive: 0.0523	inactive: -0.534
CC(C)(C)c1nc(N2CCN(CCCSc3nccc(O)n3)CC2)cc(C(F)(F)F)n1	inactive: -0.0112	inactive: 0.286	inactive: -0.317
c1ccc(-c2ncc(CN3CCN(c4ncccn4)CC3)[nH]2)cc1	inactive: -1.39	inactive: -0.352	inactive: -1.3
CC(C)COc1ccc(Cc2cnc(N)nc2N)cc1	inactive: -1.14	inactive: 1.81	inactive: -0.463
CC/C=C\C/C=C\C/C=C\CCCCCCCC(=O)O [alpha-Linolenic acid]	–	inactive: -0.827	–
CC/C=C\C/C=C\C/C=C\CCCCCCCC(=O)O [Linolenic acid]	inactive: 2.24	–	inactive: -1.21
Cn1c(=O)n(CCO)c(=O)c2ccc(C(F)(F)F)cc21	inactive: -0.0622	inactive: -1.23	inactive: 3.44
COc1ccc(O)cc1	inactive: -0.631	inactive: -1.68	inactive: 0.189
Cc1ccc(-c2ncc(Cl)cc2-c2ccc(S(C)(=O)=O)cc2)cn1 [Etoricoxib]	inactive: -1.16	–	inactive: 1.66
Cc1ccc(-c2ncc(Cl)cc2-c2ccc(S(C)(=O)=O)cc2)cn1 [etoricoxib (gel)]	–	inactive: -2.18	–
CCCc1c2oc(C(=O)O)cc(=O)c2cc2c(=O)cc(C(=O)O)n(CC)c12 [nedocromil sodium, Allergan]	inactive: -2.02	inactive: -0.658	inactive: -0.478
CC(C)CN(CCCC(O)(c1ccccc1)c1ccccc1)CC(C)C	inactive: -0.959	inactive: 0.804	inactive: 0.263
CNCC(O)CC12CCC(c3ccccc31)c1ccccc12 (centres undefined)	inactive: -0.0189	inactive: 1.7	inactive: -0.677
Fc1ccc2c(CCNCc3cccc(OCC(F)(F)C(F)F)c3)c[nH]c2c1 [idalopirdine]	inactive: -1.42	inactive: -0.144	inactive: 2.45
